Results published in PMC10253099.
Results are given in words; binding and its absence hold for the method and conditions named. For some of these results: Binding seen in cells or lysates may run through a third protein. Some binding calls cover weakened binding; strength is not graded here. Tags and fused reporters may be left off the sequences shown.

Columns and labels:
[1] = biological target: T1, OZ1, organelle zinc-finger 1 protein (GAL4 fusion for yeast two-hybrid) (Arabidopsis thaliana) (UniProt Q8S9K3); experiment: two-hybrid; Matchmaker Gold system, GAL4 BD (pGBKT7) and AD (pGADT7) fusions co-transformed into Y2HGold; growth and blue colour on SD/-Ade/-His/-Leu/-Trp/X-α-Gal, 30 °C, 5 days
T1 sequence: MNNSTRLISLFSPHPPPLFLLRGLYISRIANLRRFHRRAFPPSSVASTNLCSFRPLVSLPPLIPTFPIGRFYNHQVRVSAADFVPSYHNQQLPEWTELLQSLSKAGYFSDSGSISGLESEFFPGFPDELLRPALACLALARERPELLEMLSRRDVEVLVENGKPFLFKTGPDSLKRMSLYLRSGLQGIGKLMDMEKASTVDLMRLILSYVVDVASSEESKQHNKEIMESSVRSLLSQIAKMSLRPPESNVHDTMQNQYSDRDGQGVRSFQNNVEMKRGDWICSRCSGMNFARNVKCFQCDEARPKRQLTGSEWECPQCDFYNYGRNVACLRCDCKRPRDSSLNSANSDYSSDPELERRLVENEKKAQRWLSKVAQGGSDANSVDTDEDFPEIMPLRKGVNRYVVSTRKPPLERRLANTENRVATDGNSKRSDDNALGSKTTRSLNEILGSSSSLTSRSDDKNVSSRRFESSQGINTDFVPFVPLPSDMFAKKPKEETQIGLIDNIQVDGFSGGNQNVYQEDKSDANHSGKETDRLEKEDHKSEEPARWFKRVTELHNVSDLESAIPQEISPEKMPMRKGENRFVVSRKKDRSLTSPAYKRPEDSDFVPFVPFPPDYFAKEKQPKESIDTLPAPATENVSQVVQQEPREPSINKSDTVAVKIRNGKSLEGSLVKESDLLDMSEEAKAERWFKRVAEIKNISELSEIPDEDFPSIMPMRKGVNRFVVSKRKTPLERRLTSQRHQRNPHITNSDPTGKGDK

[2] = biological target: T2, MORF8 (GAL4 fusion for yeast two-hybrid) (Arabidopsis thaliana) (UniProt Q9LKA5); experiment: as above
T2 sequence: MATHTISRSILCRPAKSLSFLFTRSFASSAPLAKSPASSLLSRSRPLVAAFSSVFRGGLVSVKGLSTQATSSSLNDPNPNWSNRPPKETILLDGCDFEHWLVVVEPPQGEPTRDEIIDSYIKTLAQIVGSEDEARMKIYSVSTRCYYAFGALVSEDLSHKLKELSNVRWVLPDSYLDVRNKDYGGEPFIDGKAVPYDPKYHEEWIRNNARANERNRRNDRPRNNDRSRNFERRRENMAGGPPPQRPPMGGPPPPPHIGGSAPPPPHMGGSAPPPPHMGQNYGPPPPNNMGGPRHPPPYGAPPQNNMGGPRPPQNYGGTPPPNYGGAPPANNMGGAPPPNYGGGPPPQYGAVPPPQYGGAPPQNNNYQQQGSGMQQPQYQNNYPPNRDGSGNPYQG

[3] = biological target: T3, MORF9 (GAL4 fusion for yeast two-hybrid) (Arabidopsis thaliana) (UniProt Q9LPZ1); experiment: as above
T3 sequence: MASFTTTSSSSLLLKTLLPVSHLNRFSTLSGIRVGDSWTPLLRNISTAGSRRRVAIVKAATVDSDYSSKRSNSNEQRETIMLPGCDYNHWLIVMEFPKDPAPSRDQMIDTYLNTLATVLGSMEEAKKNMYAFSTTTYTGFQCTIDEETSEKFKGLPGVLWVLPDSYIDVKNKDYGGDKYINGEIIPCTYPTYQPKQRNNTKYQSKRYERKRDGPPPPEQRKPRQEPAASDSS

[4] = biological target: T4, ORRM1 (GAL4 fusion for yeast two-hybrid) (Arabidopsis thaliana) (UniProt Q8L440); experiment: as above
T4 sequence: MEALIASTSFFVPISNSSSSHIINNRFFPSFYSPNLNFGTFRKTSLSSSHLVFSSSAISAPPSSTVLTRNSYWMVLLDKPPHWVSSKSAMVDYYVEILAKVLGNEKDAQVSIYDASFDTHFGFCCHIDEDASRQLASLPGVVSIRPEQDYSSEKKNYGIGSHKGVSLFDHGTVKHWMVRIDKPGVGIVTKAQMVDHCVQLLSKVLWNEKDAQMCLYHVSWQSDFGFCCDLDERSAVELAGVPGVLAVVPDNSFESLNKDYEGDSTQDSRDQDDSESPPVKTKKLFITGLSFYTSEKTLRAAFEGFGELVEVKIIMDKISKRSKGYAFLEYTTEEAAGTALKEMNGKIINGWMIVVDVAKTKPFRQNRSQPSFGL

[5] = biological target: T5, MORF2 (GAL4 fusion for yeast two-hybrid) (Arabidopsis thaliana) (UniProt O22793); experiment: as above
T5 sequence: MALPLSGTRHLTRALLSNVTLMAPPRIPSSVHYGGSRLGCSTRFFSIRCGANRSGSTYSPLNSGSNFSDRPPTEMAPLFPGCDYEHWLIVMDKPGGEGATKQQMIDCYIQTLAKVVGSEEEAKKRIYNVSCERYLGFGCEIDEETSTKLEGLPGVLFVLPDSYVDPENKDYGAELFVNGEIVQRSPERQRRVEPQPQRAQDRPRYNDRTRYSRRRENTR

[6] = biological target: T6, MORF2-cYFP (MORF2 fused to the C-terminal fragment of YFP) (Arabidopsis thaliana) (UniProt O22793); experiment: split reporter; BiFC: nYFP (pSPYNE173) and cYFP (pSPYCE(M)) fusions co-transformed into Arabidopsis Col-0 mesophyll protoplasts, 16-20 h at 22 °C, confocal microscopy
T6 sequence: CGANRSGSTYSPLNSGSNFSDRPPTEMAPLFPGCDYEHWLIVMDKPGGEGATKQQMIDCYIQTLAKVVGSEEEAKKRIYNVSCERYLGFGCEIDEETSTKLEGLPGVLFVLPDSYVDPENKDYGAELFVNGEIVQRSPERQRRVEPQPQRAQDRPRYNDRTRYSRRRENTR

[7] = biological target: T7, ORRM1-cYFP (Arabidopsis thaliana) (UniProt Q8L440); experiment: as above
T7 sequence: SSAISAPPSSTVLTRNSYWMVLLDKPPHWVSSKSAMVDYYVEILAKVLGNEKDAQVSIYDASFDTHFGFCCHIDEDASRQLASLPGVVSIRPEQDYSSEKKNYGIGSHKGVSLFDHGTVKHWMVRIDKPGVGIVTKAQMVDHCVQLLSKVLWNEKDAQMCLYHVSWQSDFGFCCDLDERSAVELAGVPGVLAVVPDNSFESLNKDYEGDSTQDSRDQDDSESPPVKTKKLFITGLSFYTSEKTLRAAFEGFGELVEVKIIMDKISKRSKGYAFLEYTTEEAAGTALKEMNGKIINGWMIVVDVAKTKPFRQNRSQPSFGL

[8] = biological target: T8, MORF8-cYFP (Arabidopsis thaliana) (UniProt Q9LKA5); experiment: as above
T8 sequence: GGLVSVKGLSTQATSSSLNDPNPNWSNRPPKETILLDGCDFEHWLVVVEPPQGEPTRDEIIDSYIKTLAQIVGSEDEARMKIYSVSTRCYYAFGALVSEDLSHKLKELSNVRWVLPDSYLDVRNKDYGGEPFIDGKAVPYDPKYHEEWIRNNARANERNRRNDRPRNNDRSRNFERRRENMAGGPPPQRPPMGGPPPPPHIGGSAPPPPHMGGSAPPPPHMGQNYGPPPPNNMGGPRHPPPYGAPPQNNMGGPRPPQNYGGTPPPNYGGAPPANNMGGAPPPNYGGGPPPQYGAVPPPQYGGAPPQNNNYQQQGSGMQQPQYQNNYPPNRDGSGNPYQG

[9] = biological target: T9, MORF9-cYFP (Arabidopsis thaliana) (UniProt Q9LPZ1); experiment: as above
T9 sequence: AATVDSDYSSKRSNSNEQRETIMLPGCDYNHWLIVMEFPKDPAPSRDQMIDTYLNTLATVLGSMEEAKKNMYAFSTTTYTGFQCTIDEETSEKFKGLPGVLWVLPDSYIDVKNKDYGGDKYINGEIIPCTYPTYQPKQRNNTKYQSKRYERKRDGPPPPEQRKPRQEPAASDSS

[10] = biological target: T10, ORRM1-NLuc (Arabidopsis thaliana) (UniProt Q8L440); experiment: split reporter; firefly luciferase complementation imaging (LCI): NLuc and CLuc fusions co-expressed in tobacco leaves by Agrobacterium infiltration with P19, 60 h, 1 mM D-luciferin
T10 sequence: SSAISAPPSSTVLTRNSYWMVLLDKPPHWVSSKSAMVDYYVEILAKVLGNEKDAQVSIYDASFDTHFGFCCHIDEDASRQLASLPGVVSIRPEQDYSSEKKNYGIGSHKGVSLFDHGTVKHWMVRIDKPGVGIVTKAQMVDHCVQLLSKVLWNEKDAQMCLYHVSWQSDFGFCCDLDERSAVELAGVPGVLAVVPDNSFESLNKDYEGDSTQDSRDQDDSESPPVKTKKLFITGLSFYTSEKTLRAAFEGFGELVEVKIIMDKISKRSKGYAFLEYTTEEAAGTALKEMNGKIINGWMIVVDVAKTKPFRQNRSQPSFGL

[11] = biological target: T11, MORF2-NLuc (MORF2, N-terminal luciferase fragment fusion) (Arabidopsis thaliana) (UniProt O22793); experiment: as above
T11 sequence: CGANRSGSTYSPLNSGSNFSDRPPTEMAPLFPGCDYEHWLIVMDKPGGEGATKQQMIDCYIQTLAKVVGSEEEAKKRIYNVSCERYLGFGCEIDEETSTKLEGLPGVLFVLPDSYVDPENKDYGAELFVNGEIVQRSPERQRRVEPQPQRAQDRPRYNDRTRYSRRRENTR

[12] = biological target: T12, MORF8-NLuc (Arabidopsis thaliana) (UniProt Q9LKA5); experiment: as above
T12 sequence: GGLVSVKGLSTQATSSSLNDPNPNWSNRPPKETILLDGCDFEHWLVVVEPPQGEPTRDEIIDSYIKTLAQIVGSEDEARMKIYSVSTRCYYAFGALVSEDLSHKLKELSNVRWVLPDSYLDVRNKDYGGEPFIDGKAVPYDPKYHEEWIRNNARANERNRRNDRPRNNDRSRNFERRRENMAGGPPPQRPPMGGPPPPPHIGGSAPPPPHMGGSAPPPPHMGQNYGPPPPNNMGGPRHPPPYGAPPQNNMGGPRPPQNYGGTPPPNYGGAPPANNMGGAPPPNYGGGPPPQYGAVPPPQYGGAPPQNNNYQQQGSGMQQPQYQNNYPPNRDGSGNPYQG

[13] = biological target: T13, MORF9-NLuc (Arabidopsis thaliana) (UniProt Q9LPZ1); experiment: as above
T13 sequence: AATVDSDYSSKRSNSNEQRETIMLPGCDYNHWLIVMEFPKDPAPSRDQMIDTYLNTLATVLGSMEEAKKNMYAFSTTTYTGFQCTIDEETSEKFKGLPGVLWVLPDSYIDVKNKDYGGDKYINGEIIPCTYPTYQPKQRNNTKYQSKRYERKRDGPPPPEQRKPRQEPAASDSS

Measured: binding

B1: ATPC1, the gamma subunit of ATP synthase in Arabidopsis chloroplasts (GAL4 fusion for yeast two-hybrid) (protein, UniProt Q01908 1-373)
chain: MACSNLTTMWVSSKPSLSADSSSLSFRSVLKCPTNTSSPPSRASSVSPLQASLRELRDRIDSVKNTQKITEAMKLVAAAKVRRAQEAVVNGRPFSETLVEVLYNINEQLQTDDVDVPLTKVRPVKKVALVVVTGDRGLCGGFNNFIIKKAEARIKELKGLGLEYTVISVGKKGNSYFLRRPYIPVDKYLEAGTLPTAKEAQAVADDVFSLFISEEVDKVELLYTKFVSLVKSEPVIHTLLPLSPKGEICDINGTCVDAAEDEFFRLTTKEGKLTVERETFRTPTADFSPILQFEQDPVQILDALLPLYLNSQILRALQESLASELAARMSAMSSASDNASDLKKSLSMVYNRKRQAKITGEILEIVAGANAQV
binds: [1] | [2] | [3] | [4] | [5]

B2: ATPC1-nYFP (ATPC1 fused to the N-terminal fragment of YFP) (protein, UniProt Q01908 51-373)
chain: ASLRELRDRIDSVKNTQKITEAMKLVAAAKVRRAQEAVVNGRPFSETLVEVLYNINEQLQTDDVDVPLTKVRPVKKVALVVVTGDRGLCGGFNNFIIKKAEARIKELKGLGLEYTVISVGKKGNSYFLRRPYIPVDKYLEAGTLPTAKEAQAVADDVFSLFISEEVDKVELLYTKFVSLVKSEPVIHTLLPLSPKGEICDINGTCVDAAEDEFFRLTTKEGKLTVERETFRTPTADFSPILQFEQDPVQILDALLPLYLNSQILRALQESLASELAARMSAMSSASDNASDLKKSLSMVYNRKRQAKITGEILEIVAGANAQV
binds: [6] | [7] | [8] | [9]

B3: ATPC1-CLuc (ATPC1, C-terminal luciferase fragment fusion) (protein, UniProt Q01908 51-373)
chain: ASLRELRDRIDSVKNTQKITEAMKLVAAAKVRRAQEAVVNGRPFSETLVEVLYNINEQLQTDDVDVPLTKVRPVKKVALVVVTGDRGLCGGFNNFIIKKAEARIKELKGLGLEYTVISVGKKGNSYFLRRPYIPVDKYLEAGTLPTAKEAQAVADDVFSLFISEEVDKVELLYTKFVSLVKSEPVIHTLLPLSPKGEICDINGTCVDAAEDEFFRLTTKEGKLTVERETFRTPTADFSPILQFEQDPVQILDALLPLYLNSQILRALQESLASELAARMSAMSSASDNASDLKKSLSMVYNRKRQAKITGEILEIVAGANAQV
binds: [10] | [11] | [12] | [13]
